# The supplement of paper PMC7666118
# Amino acid sequences for entries named in this document (tags omitted). A change or cut given only in a name is not applied to a line headed by its entry.
# UniProt O00232: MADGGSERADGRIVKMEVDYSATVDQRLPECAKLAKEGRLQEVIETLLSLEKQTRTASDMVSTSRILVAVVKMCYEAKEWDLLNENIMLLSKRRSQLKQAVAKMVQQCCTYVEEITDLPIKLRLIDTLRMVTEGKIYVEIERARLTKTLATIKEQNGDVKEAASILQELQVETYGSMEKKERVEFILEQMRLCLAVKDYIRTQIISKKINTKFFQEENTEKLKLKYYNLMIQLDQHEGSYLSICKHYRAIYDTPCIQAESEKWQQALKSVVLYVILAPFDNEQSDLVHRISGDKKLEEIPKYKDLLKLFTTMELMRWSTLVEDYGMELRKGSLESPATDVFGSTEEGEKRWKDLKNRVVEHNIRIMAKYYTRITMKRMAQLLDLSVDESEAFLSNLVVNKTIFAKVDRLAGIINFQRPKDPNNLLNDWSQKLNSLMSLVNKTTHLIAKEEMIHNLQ
# UniProt Q9UKM9: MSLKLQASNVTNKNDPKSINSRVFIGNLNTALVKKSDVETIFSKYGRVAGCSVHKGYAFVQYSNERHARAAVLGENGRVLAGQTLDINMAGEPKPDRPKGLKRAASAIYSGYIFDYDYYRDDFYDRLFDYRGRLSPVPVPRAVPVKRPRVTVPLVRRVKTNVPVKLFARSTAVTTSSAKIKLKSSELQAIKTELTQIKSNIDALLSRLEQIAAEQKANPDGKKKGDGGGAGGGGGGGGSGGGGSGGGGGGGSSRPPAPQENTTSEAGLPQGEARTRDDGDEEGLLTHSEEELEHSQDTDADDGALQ
# UniProt P51665: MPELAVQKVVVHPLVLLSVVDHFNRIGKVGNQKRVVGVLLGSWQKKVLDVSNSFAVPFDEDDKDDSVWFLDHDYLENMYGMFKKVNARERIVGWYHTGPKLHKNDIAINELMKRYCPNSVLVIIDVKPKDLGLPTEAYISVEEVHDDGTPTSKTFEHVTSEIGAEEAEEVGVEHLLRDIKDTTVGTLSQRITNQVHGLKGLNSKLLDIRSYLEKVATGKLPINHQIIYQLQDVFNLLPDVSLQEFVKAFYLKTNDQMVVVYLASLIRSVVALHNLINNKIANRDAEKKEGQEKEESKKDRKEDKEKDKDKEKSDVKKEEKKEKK
# UniProt Q3YEC7: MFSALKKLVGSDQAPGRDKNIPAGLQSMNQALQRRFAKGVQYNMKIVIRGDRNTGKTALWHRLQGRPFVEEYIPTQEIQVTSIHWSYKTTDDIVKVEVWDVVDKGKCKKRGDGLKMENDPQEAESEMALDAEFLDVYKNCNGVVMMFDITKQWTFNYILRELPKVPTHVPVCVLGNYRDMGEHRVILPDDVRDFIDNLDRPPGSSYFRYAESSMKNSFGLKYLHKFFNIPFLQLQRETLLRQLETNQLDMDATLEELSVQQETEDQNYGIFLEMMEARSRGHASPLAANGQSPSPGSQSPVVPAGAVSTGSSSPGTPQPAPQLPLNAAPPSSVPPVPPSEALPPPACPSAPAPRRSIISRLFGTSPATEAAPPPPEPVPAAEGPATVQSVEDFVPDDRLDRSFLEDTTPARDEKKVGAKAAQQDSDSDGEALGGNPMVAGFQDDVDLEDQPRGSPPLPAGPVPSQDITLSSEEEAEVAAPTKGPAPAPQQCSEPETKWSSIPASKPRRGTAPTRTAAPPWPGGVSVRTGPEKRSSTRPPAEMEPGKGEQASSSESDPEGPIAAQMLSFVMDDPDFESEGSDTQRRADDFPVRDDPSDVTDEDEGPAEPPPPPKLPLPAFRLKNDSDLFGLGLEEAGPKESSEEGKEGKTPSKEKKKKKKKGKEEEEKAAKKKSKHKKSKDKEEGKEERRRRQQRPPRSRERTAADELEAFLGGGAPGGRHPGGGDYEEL
# UniProt Q6WKZ4: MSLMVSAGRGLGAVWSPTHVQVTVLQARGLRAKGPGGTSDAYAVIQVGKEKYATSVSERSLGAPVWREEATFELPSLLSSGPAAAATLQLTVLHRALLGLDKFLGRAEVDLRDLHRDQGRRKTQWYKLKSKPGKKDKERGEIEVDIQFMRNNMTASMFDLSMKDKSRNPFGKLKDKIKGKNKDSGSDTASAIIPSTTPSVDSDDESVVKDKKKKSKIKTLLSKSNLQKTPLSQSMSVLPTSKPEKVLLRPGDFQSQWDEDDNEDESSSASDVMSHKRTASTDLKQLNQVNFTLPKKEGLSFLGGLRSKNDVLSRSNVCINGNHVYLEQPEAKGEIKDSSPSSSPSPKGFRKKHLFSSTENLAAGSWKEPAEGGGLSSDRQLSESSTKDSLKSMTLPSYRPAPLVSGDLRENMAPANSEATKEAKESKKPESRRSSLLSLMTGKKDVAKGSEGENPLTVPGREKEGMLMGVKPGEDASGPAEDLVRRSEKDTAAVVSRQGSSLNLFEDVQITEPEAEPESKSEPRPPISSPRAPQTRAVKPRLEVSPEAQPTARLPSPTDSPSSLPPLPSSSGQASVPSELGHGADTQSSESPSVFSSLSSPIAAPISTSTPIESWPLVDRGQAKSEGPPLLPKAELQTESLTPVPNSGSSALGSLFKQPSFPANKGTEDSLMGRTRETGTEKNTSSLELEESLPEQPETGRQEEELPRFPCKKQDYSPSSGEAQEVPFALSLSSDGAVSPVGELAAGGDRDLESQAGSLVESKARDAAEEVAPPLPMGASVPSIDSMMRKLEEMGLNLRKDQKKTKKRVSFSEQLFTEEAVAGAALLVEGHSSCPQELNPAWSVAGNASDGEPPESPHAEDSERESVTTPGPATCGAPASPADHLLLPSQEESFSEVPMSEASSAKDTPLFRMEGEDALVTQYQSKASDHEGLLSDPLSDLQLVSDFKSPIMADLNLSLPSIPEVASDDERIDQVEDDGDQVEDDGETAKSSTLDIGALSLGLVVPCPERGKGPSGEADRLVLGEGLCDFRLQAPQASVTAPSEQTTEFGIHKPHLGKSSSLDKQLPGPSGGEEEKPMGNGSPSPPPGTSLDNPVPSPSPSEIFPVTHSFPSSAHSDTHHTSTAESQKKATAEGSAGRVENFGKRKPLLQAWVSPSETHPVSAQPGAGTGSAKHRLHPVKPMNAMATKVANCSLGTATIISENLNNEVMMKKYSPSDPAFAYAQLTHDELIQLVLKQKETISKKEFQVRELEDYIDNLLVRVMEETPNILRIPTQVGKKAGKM
# UniProt P31323, whole entry: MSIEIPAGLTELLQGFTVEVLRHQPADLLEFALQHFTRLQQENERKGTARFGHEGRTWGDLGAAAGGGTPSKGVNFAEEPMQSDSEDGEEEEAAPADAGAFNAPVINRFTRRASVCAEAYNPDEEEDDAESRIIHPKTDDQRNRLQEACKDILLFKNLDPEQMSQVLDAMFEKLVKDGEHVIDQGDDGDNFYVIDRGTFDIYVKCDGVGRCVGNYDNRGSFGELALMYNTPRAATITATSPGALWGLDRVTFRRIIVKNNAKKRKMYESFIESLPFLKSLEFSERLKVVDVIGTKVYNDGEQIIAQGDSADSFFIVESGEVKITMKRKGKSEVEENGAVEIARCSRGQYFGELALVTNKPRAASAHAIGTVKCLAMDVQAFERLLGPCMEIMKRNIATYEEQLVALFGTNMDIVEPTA
# UniProt O60256: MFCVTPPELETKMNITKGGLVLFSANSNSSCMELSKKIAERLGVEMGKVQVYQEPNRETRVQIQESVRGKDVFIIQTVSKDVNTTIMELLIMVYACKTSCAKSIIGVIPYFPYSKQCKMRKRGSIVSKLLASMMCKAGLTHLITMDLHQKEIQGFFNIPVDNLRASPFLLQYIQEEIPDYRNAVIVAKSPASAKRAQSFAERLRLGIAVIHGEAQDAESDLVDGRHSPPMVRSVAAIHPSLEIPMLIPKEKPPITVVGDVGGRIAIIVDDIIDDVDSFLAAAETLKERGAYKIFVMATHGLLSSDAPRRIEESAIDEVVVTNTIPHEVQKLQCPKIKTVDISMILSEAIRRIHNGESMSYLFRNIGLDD
# UniProt Q13200: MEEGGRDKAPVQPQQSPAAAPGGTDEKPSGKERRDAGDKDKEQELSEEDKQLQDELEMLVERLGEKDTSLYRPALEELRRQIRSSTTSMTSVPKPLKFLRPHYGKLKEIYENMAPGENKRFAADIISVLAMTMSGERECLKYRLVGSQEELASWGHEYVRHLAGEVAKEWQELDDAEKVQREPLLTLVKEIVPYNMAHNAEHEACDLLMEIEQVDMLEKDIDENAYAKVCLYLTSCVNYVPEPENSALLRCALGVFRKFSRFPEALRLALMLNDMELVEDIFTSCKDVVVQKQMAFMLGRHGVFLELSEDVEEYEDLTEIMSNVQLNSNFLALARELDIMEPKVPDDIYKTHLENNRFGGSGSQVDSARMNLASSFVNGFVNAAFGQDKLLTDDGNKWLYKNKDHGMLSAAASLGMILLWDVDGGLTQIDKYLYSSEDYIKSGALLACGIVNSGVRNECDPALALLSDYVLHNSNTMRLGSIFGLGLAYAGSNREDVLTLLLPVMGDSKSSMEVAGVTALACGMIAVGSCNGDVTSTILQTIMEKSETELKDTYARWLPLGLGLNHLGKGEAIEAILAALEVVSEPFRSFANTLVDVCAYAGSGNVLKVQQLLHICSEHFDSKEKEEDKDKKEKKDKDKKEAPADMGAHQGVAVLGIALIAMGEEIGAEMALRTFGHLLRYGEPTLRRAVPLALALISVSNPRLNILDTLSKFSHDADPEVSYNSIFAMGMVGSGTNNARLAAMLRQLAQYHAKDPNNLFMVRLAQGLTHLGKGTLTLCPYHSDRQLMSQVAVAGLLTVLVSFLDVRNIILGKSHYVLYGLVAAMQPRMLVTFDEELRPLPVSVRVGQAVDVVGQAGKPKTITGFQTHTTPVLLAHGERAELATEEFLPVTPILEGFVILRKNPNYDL
# UniProt Q5VTL8: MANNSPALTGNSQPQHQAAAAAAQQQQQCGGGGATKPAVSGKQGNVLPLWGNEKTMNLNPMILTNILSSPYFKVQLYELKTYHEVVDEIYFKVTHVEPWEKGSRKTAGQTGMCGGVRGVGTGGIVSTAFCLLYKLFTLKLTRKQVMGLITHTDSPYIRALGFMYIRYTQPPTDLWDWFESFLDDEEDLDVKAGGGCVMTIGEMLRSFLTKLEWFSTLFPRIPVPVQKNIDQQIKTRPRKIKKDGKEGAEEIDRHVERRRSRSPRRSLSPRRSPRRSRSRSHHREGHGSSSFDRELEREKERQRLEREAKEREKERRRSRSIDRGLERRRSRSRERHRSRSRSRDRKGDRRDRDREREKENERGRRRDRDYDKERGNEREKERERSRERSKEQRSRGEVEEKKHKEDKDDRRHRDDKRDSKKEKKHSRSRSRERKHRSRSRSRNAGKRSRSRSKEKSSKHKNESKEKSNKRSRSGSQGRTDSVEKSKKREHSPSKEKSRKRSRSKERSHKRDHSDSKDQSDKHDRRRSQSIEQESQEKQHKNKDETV
# UniProt Q96BW5: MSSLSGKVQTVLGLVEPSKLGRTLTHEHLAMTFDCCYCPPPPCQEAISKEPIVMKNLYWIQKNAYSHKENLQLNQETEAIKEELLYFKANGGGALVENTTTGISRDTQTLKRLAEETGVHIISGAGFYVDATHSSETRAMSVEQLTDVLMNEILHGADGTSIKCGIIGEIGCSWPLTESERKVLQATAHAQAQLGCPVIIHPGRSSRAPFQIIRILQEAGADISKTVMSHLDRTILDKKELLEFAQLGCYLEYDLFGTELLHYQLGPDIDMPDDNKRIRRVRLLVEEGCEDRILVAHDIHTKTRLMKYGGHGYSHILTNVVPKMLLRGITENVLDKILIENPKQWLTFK
# UniProt Q6P2P2: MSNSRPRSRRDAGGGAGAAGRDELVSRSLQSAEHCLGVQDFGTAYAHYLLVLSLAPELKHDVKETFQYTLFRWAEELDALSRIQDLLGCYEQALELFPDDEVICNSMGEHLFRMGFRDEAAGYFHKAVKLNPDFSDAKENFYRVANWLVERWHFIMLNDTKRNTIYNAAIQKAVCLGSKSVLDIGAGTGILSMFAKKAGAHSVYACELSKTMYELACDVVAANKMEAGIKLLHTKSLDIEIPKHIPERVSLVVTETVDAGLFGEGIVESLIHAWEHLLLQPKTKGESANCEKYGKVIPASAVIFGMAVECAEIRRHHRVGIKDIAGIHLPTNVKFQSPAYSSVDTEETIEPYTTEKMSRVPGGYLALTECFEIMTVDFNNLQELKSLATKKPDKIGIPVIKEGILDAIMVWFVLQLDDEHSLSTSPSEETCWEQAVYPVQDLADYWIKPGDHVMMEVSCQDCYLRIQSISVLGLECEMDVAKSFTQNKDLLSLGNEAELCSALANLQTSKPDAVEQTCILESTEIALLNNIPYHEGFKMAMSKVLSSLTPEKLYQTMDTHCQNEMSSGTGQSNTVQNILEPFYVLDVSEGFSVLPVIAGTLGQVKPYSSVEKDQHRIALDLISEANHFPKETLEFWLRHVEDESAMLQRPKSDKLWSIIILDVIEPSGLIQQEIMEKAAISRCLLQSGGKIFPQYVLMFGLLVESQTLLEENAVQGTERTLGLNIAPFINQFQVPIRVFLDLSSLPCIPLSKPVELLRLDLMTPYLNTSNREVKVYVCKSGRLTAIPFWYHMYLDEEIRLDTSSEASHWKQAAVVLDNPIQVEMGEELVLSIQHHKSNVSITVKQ
# This is one part of the list.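 How the source made its calls: active = dose-dependent thermal stabilisation significant by F-test of dose-response against flat model at 10% FDR; inactive = not significant.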
# Compound: Nc1nc2c(ncn2[C@@H]2O[C@H](COP(=O)(O)OP(=O)(O)OP(=O)(O)O)[C@@H](O)[C@H]2O)c(=O)[nH]1
# Test: dose-dependent thermal stabilisation call (2D-TPP, DLPTP, 10% FDR) (binary (1 = stabilised)); higher = stabilised by the compound
# Settings: system: Jurkat gel-filtered lysate; concentration range 1-500 µM
row,Target,dose-dependent thermal stabilisation call
1,RANGAP1 (UniProt P46060),inactive: 0
2,PSMD12 (UniProt O00232),inactive: 0
3,PSMD9 (UniProt O00233),inactive: 0
4,RBM17 (UniProt Q96I25),inactive: 0
5,RBM10 (UniProt P98175),inactive: 0
6,RALY (UniProt Q9UKM9),inactive: 0
7,PTBP2 (UniProt Q9UKA9),inactive: 0
8,RAN (UniProt P62826),inactive: 0
9,RALGAPB (UniProt Q86X10),inactive: 0
10,PSMD7 (UniProt P51665),inactive: 0
11,RABL6 (UniProt Q3YEC7),inactive: 0
12,RBM3 (UniProt P98179),inactive: 0
13,RAB11FIP1 (UniProt Q6WKZ4),inactive: 0
14,PSMC3 (UniProt P17980),inactive: 0
15,PRKAR2B (UniProt P31323),active: 1
16,PYCR1 (UniProt P32322),inactive: 0
17,PTPN6 (UniProt P29350),active: 1
18,PRPSAP2 (UniProt O60256),inactive: 0

row,Target,dose-dependent thermal stabilisation call
1,PSMD2 (UniProt Q13200),active: 1
2,PWP1 (UniProt Q13610),inactive: 0
3,PRPF38B (UniProt Q5VTL8),active: 1
4,PRKACB (UniProt P22694),inactive: 0
5,PTER (UniProt Q96BW5),inactive: 0
6,PRKRIP1 (UniProt Q9H875),inactive: 0
7,PSMB7 (UniProt Q99436),inactive: 0
8,PTPN2 (UniProt P17706),inactive: 0
9,RBM4 (UniProt Q9BWF3),active: 1
10,RAP1GDS1 (UniProt P52306),inactive: 0
11,PSPC1 (UniProt Q8WXF1),active: 1
12,RAB33A (UniProt Q14088),active: 1
13,PRRC2B (UniProt Q5JSZ5),inactive: 0
14,PUS7 (UniProt Q96PZ0),inactive: 0
15,PRR12 (UniProt Q9ULL5),inactive: 0
16,PRMT9 (UniProt Q6P2P2),inactive: 0
17,RCCD1 (UniProt A6NED2),inactive: 0
18,PSMB3 (UniProt P49720),inactive: 0

# Some values from above:
# PRKRIP1 (UniProt Q9H875) – dose-dependent thermal stabilisation call: inactive: 0
# RBM10 (UniProt P98175) – dose-dependent thermal stabilisation call: inactive: 0
# PSMC3 (UniProt P17980) – dose-dependent thermal stabilisation call: inactive: 0
